Patent US6794491B1 (Takeda Chemical Industries, Ltd., priority 1995, dated 2004)

Assay: general procedure: Boc solid-phase peptide synthesis; p-methyl-BHA resin; HOBt/DCC
Conditions: whole synthesis, scale 0.5 mmole

SRAHQHSMEIRTPDINPAWYAGRGIRPVGRF-NH2
crude mass: 290 mg | difficulty met: The Boc-Ala, Boc-Tyr (Br-Z), the condensation of which was found insufficient by ninhydrin test, was recondensed | isolated mass: 71 mg

Where no end group is shown, it is not given here.
